The assay addresses TKS5^GFP (human). The assay is described as follows: affinity purification with mass spectrometry; GFP-Trap (anti-GFP nanobody magnetic agarose beads) from NP-40 lysates of MDA-MB-231 cells stably expressing TKS5^GFP, plated 90 min on type I collagen; cells without TKS5^GFP as negative control; biological triplicate; on-bead digestion, LC-MS/MS.

These are yes or no findings as the source states them, for the method shown. Binding seen in cells or lysates may run through a third protein. These calls come from enrichment with a bait or labelling near it, and not all partners need be listed.

B1: endogenous FGD1 (faciogenital dysplasia protein 1) (protein, UniProt P98174 1-961)
chain: MHGHRAPGGAGPSEPEHPATNPPGAAPPACADSDPGASEPGLLARRGSGSALGGPLDPQFVGPSDTSLGAAPGHRVLPCGPSPQHHRALRFSYHLEGSQPRPGLHQGNRILVKSLSLDPGQSLEPHPEGPQRLRSDPGPPTETPSQRPSPLKRAPGPKPQVPPKPSYLQMPRMPPPLEPIPPPPSRPLPADPRVAKGLAPRAEASPSSAAVSSLIEKFEREPVIVASDRPVPGPSPGPPEPVMLPQPTSQPPVPQLPEGEASRCLFLLAPGPRDGEKVPNRDSGIDSISSPSNSEETCFVSDDGPPSHSLCPGPPALASVPVALADPHRPGSQEVDSDLEEEDDEEEEEEKDREIPVPLMERQESVELTVQQKVFHIANELLQTEKAYVSRLHLLDQVFCARLLEEARNRSSFPADVVHGIFSNICSIYCFHQQFLLPELEKRMEEWDRYPRIGDILQKLAPFLKMYGEYVKNFDRAVELVNTWTERSTQFKVIIHEVQKEEACGNLTLQHHMLEPVQRIPRYELLLKDYLLKLPHGSPDSKDAQKSLELIATAAEHSNAAIRKMERMHKLLKVYELLGGEEDIVSPTKELIKEGHILKLSAKNGTTQDRYLILFNDRLLYCVPRLRLLGQKFSVRARIDVDGMELKESSNLNLPRTFLVSGKQRSLELQARTEEEKKDWVQAINSTLLKHEQTLETFKLLNSTNREDEDTPPNSPNVDLGKRAPTPIREKEVTMCMRCQEPFNSITKRRHHCKACGHVVCGKCSEFRARLVYDNNRSNRVCTDCYVALHGVPGSSPACSQHTPQRRRSILEKQASVAAENSVICSFLHYMEKGGKGWHKAWFVVPENEPLVLYIYGAPQDVKAQRSLPLIGFEVGPPEAGERPDRRHVFKITQSHLSWYFSPETEELQRRWMAVLGRAGRGDTFCPGPTLSEDREMEEAPVAALGATAEPPESPQTRDKT
As to B1, the binding entry is reported as “binds”.

B2: monocarboxylate transporter 4 (protein, UniProt O15427 1-465)
chain: MGGAVVDEGPTGVKAPDGGWGWAVLFGCFVITGFSYAFPKAVSVFFKELIQEFGIGYSDTAWISSILLAMLYGTGPLCSVCVNRFGCRPVMLVGGLFASLGMVAASFCRSIIQVYLTTGVITGLGLALNFQPSLIMLNRYFSKRRPMANGLAAAGSPVFLCALSPLGQLLQDRYGWRGGFLILGGLLLNCCVCAALMRPLVVTAQPGSGPPRPSRRLLDLSVFRDRGFVLYAVAASVMVLGLFVPPVFVVSYAKDLGVPDTKAAFLLTILGFIDIFARPAAGFVAGLGKVRPYSVYLFSFSMFFNGLADLAGSTAGDYGGLVVFCIFFGISYGMVGALQFEVLMAIVGTHKFSSAIGLVLLMEAVAVLVGPPSGGKLLDATHVYMYVFILAGAEVLTSSLILLLGNFFCIRKKPKEPQPEVAAAEEEKLHKPPADSGVDLREVEHFLKAEPEKNGEVVHTPETSV
Take B2: the binding result is recorded as “binds”.
